PubChem BioAssay AID1259284 | Sanger Institute, 2017
This is a random part of 794 reagents. 16 of all reagents (2%) were called active. 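Calls concern knock-down without drug only; drug synergy was judged apart, with scores above 0.15 taken as synergy.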 Viability is capped at 1. Reagent sequences are not shown. The record does not give: the amount of reagent, the time to read-out.

Assay: 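Kinase knock-downs that cut colorectal cancer cell growth alone or with targeted drugs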 (primary screen)
Cell system: SW48 human colorectal cancer cells
Reagents: siRNA pool against human genes
Challenge: anchor drug BYL719 at 1 µM, cetuximab at 5 µg/ml or trametinib at 10 nM, or DMSO vehicle alone
Measured: 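Viability scaled to non-targeting control pool, robust z-score from controls, and synergy scores for each drug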
Scale: robust z-score, no drug: higher = more cells survive knock-down; viability, no drug: higher = more viable cells; synergy with BYL719 and synergy with trametinib and synergy with cetuximab: higher = stronger combined killing with drug
Rule for the call: 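Called essential when the robust z-score of viability without drug falls below -3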
Calls: active = essential without drug; inactive = no change without drug

target gene	robust z-score, no drug	viability, no drug (fraction of control)	synergy with BYL719	synergy with trametinib	synergy with cetuximab	call
TEC	-0.508	0.92	-0.194	-0.103	-0.076	inactive
SRMS	-2.57	0.743	-0.0825	0.0702	-0.228	inactive
RAF1	0.426	1	-0.234	-0.00348	-0.165	inactive
SPHK1	0.426	1	-0.0782	0.0345	-0.082	inactive
IGF1R	0.426	1	-0.208	-0.26	-0.0173	inactive
LRRK2	0.426	1	-0.297	0.133	0.00329	inactive
PHKG1	0.426	1	-0.359	-0.135	-0.0897	inactive
AXL	0.426	1	-0.207	-0.0389	-0.165	inactive
ACVR2A	0.426	1	-0.0556	-0.0964	-0.165	inactive
MAPK7	0.426	1	-0.305	-0.22	-0.165	inactive
RBKS	0.426	1	-0.277	-0.381	-0.165	inactive
AMER1	0.426	1	-0.107	-0.123	0.075	inactive
MAP2K7	-0.02	0.962	-0.13	-0.128	-0.0606	inactive
PAK6	0.426	1	-0.289	-0.0544	-0.119	inactive
PSKH2	0.426	1	0.00462	0.0877	0.0837	inactive
PDGFRL	0.426	1	-0.174	-0.0463	-0.165	inactive
HCK	0.426	1	-0.0167	-0.023	-0.0713	inactive
GRK3	0.426	1	-0.26	-0.144	-0.165	inactive
CAMK1D	-0.274	0.94	-0.19	-0.167	-0.0763	inactive

Continued (2 carried over from the part before).
target gene	robust z-score, no drug	viability, no drug (fraction of control)	synergy with BYL719	synergy with trametinib	synergy with cetuximab	call
GRK3	0.426	1	-0.26	-0.144	-0.165	inactive
CAMK1D	-0.274	0.94	-0.19	-0.167	-0.0763	inactive
DGKH	-1.6	0.826	-0.205	-0.122	-0.139	inactive
MOK	0.426	1	-0.108	-0.165	0.0148	inactive
PIK3R4	0.426	1	-0.149	-0.208	-0.117	inactive
DDR2	0.426	1	-0.16	-0.108	-0.104	inactive
ALPK1	0.426	1	-0.16	0.0118	-0.0735	inactive
PIP4K2C	0.426	1	-0.172	0.03	0.0976	inactive
CAD	0.426	1	-0.208	-0.117	-0.0845	inactive
CLK2	0.426	1	-0.367	-0.252	-0.165	inactive
NEK1	0.426	1	-0.202	-0.0235	-0.165	inactive
SGK3	0.426	1	-0.14	-0.0842	-0.0814	inactive
ADPGK	0.426	1	-0.0443	-0.245	0.0777	inactive
DGKG	0.426	1	-0.165	-0.022	0.0747	inactive
HK1	0.426	1	-0.0759	-0.0871	-0.165	inactive
AURKA	-7.92	0.284	-0.075	-0.0675	-0.222	active
MARK4	0.16	0.977	0.074	0.122	0.145	inactive
